From PubChem BioAssay AID188 (DTP/NCI, 2004)
Values are animals surviving of animals treated; these mice carried no tumour. Survivors were counted at the toxicity check, usually on the fifth day, unless a day is given; later deaths do not show. Schedules are NCI's codes, taken here to give the interval after Q, in days (D) or hours (H), and the number of doses after X.

Tested on: CD2F1 mice, nontumored, toxicity/survival
Assay: NCI In Vivo Anticancer Drug Screen. Data for tumor model Nontumored Animals (Toxicity Test) in CD2F1 (CDF1) mice

SMILES: Cc1cc2c(c3oc(C4(C)OC4C4OC4C)cc(=O)c13)C(=O)c1c(O)c(C3CC(C)(N(C)C)C(O)C(C)O3)cc(C3CC(N(C)C)C(O)C(C)O3)c1C2=O (stereo not drawn)
- survivor count (dose: 0.01 mg/kg/injection, schedule: Q01DX009 (oral), vehicle: saline): 8 of 8
- survivor count (dose: 0.03 mg/kg/injection, schedule: Q01DX009 (oral), vehicle: saline): 8 of 8
- survivor count (dose: 0.06 mg/kg/injection, schedule: Q01DX001 (ip), vehicle: saline): 8 of 8
- survivor count (dose: 0.06 mg/kg/injection, schedule: Q01DX001 (oral), vehicle: saline): 8 of 8
- survivor count (dose: 0.06 mg/kg/injection, schedule: Q01DX009 (oral), vehicle: saline): 8 of 8
- survivor count (dose: 0.07 mg/kg/injection, schedule: Q01DX009 (oral), vehicle: saline): 8 of 8
- survivor count (dose: 0.12 mg/kg/injection, schedule: Q01DX001 (ip), vehicle: saline): 8 of 8
- survivor count (dose: 0.12 mg/kg/injection, schedule: Q01DX001 (oral), vehicle: saline): 8 of 8
- survivor count (dose: 0.12 mg/kg/injection, schedule: Q01DX009 (oral), vehicle: saline): 8 of 8
- survivor count (dose: 0.13 mg/kg/injection, schedule: Q01DX009 (oral), vehicle: saline): 8 of 8
- survivor count (dose: 0.24 mg/kg/injection, schedule: Q01DX001 (ip), vehicle: saline): 8 of 8
- survivor count (dose: 0.24 mg/kg/injection, schedule: Q01DX001 (oral), vehicle: saline): 8 of 8
- survivor count (dose: 0.25 mg/kg/injection, schedule: Q01DX001 (oral), vehicle: saline): 8 of 8
- survivor count (dose: 0.25 mg/kg/injection, schedule: Q01DX009 (oral), vehicle: saline): 8 of 8
- survivor count (dose: 0.48 mg/kg/injection, schedule: Q01DX001 (ip), vehicle: saline): 4 of 8
- survivor count (dose: 0.48 mg/kg/injection, schedule: Q01DX001 (oral), vehicle: saline): 8 of 8
- survivor count (dose: 0.5 mg/kg/injection, schedule: Q01DX001 (oral), vehicle: saline): 8 of 8
- survivor count (dose: 0.5 mg/kg/injection, schedule: Q01DX009 (oral), vehicle: saline): 8 of 8
- survivor count (dose: 1.0 mg/kg/injection, schedule: Q01DX001 (oral), vehicle: saline): 8 of 8
- survivor count (dose: 2.0 mg/kg/injection, schedule: Q01DX001 (oral), vehicle: saline): 8 of 8
- survivor count (dose: 1.0 micrograms/kg/injection, schedule: Q03HX024 (ip), vehicle: saline): 8 of 8
- survivor count (dose: 2.0 micrograms/kg/injection, schedule: Q03HX016 (ip), vehicle: saline): 8 of 8
- survivor count (dose: 2.0 micrograms/kg/injection, schedule: Q03HX024 (ip), vehicle: saline): 8 of 8
- survivor count (dose: 4.0 micrograms/kg/injection, schedule: Q01DX009 (ip), vehicle: saline): 8 of 8
- survivor count (dose: 4.0 micrograms/kg/injection, schedule: Q03HX016 (ip), vehicle: saline): 8 of 8
- survivor count (dose: 4.0 micrograms/kg/injection, schedule: Q03HX024 (ip), vehicle: saline): 8 of 8
- survivor count (dose: 8.0 micrograms/kg/injection, schedule: Q01DX009 (ip), vehicle: saline): 8 of 8
- survivor count (dose: 8.0 micrograms/kg/injection, schedule: Q03HX008 (ip), vehicle: saline): 8 of 8
- survivor count (dose: 8.0 micrograms/kg/injection, schedule: Q03HX016 (ip), vehicle: saline): 8 of 8
- survivor count (dose: 8.0 micrograms/kg/injection, schedule: Q03HX024 (ip), vehicle: saline): 8 of 8
- survivor count (dose: 8.0 micrograms/kg/injection, schedule: Q04DX003 (ip), vehicle: saline): 8 of 8
- survivor count (dose: 15.0 micrograms/kg/injection, schedule: Q01DX009 (ip), vehicle: saline): 8 of 8
- survivor count (dose: 15.0 micrograms/kg/injection, schedule: Q03HX008 (ip), vehicle: saline): 8 of 8
- survivor count (dose: 15.0 micrograms/kg/injection, schedule: Q03HX016 (ip), vehicle: saline): 8 of 8
- survivor count (dose: 15.0 micrograms/kg/injection, schedule: Q04DX003 (ip), vehicle: saline): 8 of 8
- survivor count (dose: 15.0 micrograms/kg/injection, schedule: Q08DX002 (ip), vehicle: saline): 8 of 8
- survivor count (dose: 30.0 micrograms/kg/injection, schedule: Q01DX009 (ip), vehicle: saline): 8 of 8
- survivor count (dose: 30.0 micrograms/kg/injection, schedule: Q03HX008 (ip), vehicle: saline): 8 of 8
- survivor count (dose: 30.0 micrograms/kg/injection, schedule: Q04DX003 (ip), vehicle: saline): 8 of 8
- survivor count (dose: 30.0 micrograms/kg/injection, schedule: Q08DX002 (ip), vehicle: saline): 7 of 7
- survivor count (dose: 60.0 micrograms/kg/injection, schedule: Q03HX008 (ip), vehicle: saline): 8 of 8
- survivor count (dose: 60.0 micrograms/kg/injection, schedule: Q04DX003 (ip), vehicle: saline): 8 of 8
- survivor count (dose: 60.0 micrograms/kg/injection, schedule: Q08DX002 (ip), vehicle: saline): 8 of 8
- survivor count (dose: 120.0 micrograms/kg/injection, schedule: Q08DX002 (ip), vehicle: saline): 8 of 8

SMILES: Nc1ncnc2c1ccn2C1OC2COP(=O)(O)OC2C1O (stereo not drawn)
- survivor count (dose: 0.13 mg/kg/injection, schedule: Q03HX024 (ip), vehicle: saline): 8 of 8
- survivor count (dose: 0.25 mg/kg/injection, schedule: Q03HX024 (ip), vehicle: saline): 8 of 8
- survivor count (dose: 0.5 mg/kg/injection, schedule: Q03HX024 (ip), vehicle: saline): 8 of 8
- survivor count (dose: 1.0 mg/kg/injection, schedule: Q01DX009 (ip), vehicle: saline): 8 of 8
- survivor count (dose: 1.0 mg/kg/injection, schedule: Q03HX024 (ip), vehicle: saline): 8 of 8
- survivor count (dose: 1.0 mg/kg/injection, schedule: Q04DX003 (ip), vehicle: saline): 8 of 8
- survivor count (dose: 2.0 mg/kg/injection, schedule: Q01DX001 (ip), vehicle: saline): 8 of 8
- survivor count (dose: 2.0 mg/kg/injection, schedule: Q01DX009 (ip), vehicle: saline): 8 of 8
- survivor count (dose: 2.0 mg/kg/injection, schedule: Q04DX003 (ip), vehicle: saline): 8 of 8
- survivor count (dose: 4.0 mg/kg/injection, schedule: Q01DX001 (ip), vehicle: saline): 8 of 8
- survivor count (dose: 4.0 mg/kg/injection, schedule: Q01DX009 (ip), vehicle: saline): 8 of 8
- survivor count (dose: 4.0 mg/kg/injection, schedule: Q04DX003 (ip), vehicle: saline): 8 of 8
- survivor count (dose: 8.0 mg/kg/injection, schedule: Q01DX001 (ip), vehicle: saline): 8 of 8
- survivor count (dose: 8.0 mg/kg/injection, schedule: Q01DX009 (ip), vehicle: saline): 8 of 8
- survivor count (dose: 8.0 mg/kg/injection, schedule: Q04DX003 (ip), vehicle: saline): 8 of 8
- survivor count (dose: 16.0 mg/kg/injection, schedule: Q01DX001 (ip), vehicle: saline): 8 of 8

SMILES: CCNc1ncc2ccccc2c1-c1ccc(NCCN(CCCl)CCCl)cc1
- survivor count (dose: 1.0 mg/kg/injection, schedule: Q01DX001 (ip), vehicle: water): 2 of 2
- survivor count (dose: 10.0 mg/kg/injection, schedule: Q01DX001 (ip), vehicle: water): 2 of 2
- survivor count (dose: 100.0 mg/kg/injection, schedule: Q01DX001 (ip), vehicle: water): 2 of 2
